Results are given in words; binding and its absence hold for the method and conditions named. Binding seen in cells or lysates may run through a third protein. For part of these data: A result given as binding can be weak or reduced; the word gives no strength.
What was measured:
Assay in all cases: co-IP; T. brucei cells expressing the tagged proteins lysed in IP buffer (25 mM Tris-HCl pH 7.4, 100 mM NaCl, 0.25% Nonidet P-40, 1 mM DTT, nuclease) with sonication; anti-Ty1 or mouse anti-HA, 1 hr at 4°C, Protein-G Dynabeads; western blot with anti-Ty1 and anti-HA
[1] = target: T1, Ty1TbPF16/SPAG6 (Tb927.1.2670) (Trypanosoma brucei) (UniProt Q4GYV5)
T1 sequence: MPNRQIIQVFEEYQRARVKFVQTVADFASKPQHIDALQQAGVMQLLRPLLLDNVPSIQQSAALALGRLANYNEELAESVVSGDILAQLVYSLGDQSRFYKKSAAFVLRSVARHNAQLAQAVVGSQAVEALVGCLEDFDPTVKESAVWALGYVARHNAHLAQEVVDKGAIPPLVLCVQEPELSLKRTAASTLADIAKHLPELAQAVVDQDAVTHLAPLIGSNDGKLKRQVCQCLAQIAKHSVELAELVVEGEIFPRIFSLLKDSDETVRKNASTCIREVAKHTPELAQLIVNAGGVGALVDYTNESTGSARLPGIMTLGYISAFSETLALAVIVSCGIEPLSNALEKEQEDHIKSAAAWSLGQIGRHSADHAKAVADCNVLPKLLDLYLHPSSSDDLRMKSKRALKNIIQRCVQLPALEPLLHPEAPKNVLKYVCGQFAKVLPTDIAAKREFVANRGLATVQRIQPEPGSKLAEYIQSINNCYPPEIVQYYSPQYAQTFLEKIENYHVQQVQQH

Protein sequences, listed by entry. Tags and fused reporters are not part of them. Lines headed by an entry give the natural chain unless they say otherwise; changes in a name come on top.
UniProt Q57ZB2: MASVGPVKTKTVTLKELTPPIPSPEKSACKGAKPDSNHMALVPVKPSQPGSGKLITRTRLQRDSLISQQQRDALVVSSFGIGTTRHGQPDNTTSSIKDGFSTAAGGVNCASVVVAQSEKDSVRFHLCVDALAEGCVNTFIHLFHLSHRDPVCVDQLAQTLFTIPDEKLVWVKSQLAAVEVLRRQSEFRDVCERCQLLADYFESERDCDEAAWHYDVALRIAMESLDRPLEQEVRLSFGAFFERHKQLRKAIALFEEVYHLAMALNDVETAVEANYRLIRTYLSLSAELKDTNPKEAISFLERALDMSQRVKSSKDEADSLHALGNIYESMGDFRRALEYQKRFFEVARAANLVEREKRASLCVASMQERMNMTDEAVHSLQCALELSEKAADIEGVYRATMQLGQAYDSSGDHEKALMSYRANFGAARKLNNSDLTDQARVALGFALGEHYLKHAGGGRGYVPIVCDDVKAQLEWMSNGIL
UniProt Q38DX5: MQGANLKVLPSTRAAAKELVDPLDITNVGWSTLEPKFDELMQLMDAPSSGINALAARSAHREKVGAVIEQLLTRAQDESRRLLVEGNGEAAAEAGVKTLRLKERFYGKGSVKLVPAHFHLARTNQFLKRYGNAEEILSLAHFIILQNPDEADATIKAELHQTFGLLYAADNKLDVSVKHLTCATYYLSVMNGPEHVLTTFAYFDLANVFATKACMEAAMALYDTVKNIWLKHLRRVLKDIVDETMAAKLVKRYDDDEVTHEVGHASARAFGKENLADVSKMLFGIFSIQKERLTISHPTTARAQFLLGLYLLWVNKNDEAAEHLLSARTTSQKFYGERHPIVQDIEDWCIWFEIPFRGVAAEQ

[2] = target: TbTTC29Ty1 (Tb927.3.1990) (Trypanosoma brucei) (UniProt Q57ZB2)
[3] = target: TbTAX-1HA (T. brucei ortholog of ZMYND12, Tb927.9.10370) (Trypanosoma brucei) (UniProt Q38DX5)

Substance	binding [1]	binding [2]	binding [3]
TbTAX-1HA (T. brucei ortholog of ZMYND12, Tb927.9.10370) (from UniProt Q38DX5)	no binding	binds	
TbTTC29Ty1 (Tb927.3.1990) (from UniProt Q57ZB2)			binds

— publication PMC10629824
